According to US8835378B2, “Multi-domain amphipathic helical peptides and methods of their use” (The United States of America as represented by the …, priority 2004, dated 2014):
Part of at least one peptide drawing is inferred or uncertain, most often the ends. For some of these results: At least one read-out could not be matched to a standard name with certainty. Where a SMILES comes first, the peptide text is derived from it. [ ]: non-standard residue; d: D form.

Tests used:
control cells = type: binding, human; conditions: for competition for the binding of radiolabled L-37pA to control cells (in words): 4° C.
ABCA1 cells = experiment: Two-step competitive binding of radiolabled L-37pA to ABCA1 cells; set-up: species or system human
Procedure: FIGS. 7A-7B are a pair of graphs illustrating the competitive binding of L-37pA peptide to ABCA1 transfected cells and control cells. ABCA1 cells (FIG. 7A) and control cells (FIG. 7B) were incubated for 3 hours at 4° C. with the indicated concentration of the competitor proteins [L-37pA (triangle), D-37pA (open square), apoA-I (closed circle), L2D-37pA (star), and L3D-37pA (open circle)] and were then washed and incubated for 1 hour at 4° C. with 1 μg/ml of radiolabled L-37pA peptide. Results are expressed as the mean of triplicates±1 SD.
The L-37pA peptide was labeled with ^125I using iodine monochloride. Confluent cells grown on 12-well plates were incubated for 3 hours at 4° C. with the indicated concentration of the unlabeled competitor peptide in αMEM media plus 10 mg/ml of BSA (FIG. 7). The cells were then washed three times and incubated for 1 hour at 4° C. with 1 μg/ml of the radiolabled L-37pA peptide dissolved in αMEM media plus 10 mg/ml of BSA. Cells were washed three times, and cell bound counts were determined after solubilization with 0.1 N NaOH.
A two-step sequential competitive binding assay was performed in order to prevent any potentially interfering interaction of the radiolabled peptide with the competitor proteins (Mendez et al., J. Clin. Invest. 94:1698-1705, 1994). The cells were first incubated with the competitor proteins for 3 hours, washed, and then the cell binding of the radiolabled L-37 peptide was measured. At 8 μM, the maximum concentration tested, which is equivalent to the maximum peptide protein concentration of 40 μg/ml used in the lipid efflux studies (FIG. 1), the unlabeled L-37pA peptide blocked the binding of approximately 40% of the labeled L-37pA peptide (FIG. 7A). […] L2D-37pA and apoA-I acted as intermediate competitors; they each reduced the binding of radiolabled L-37pA to ABCA1 cells by approximately 30% (FIG. 7A).

[1] = test system: Tangier disease fibroblast cell line with a truncated non-functional ABCA1 transporter; experiment: Cholesterol efflux from Tangier disease fibroblasts; type: cell-based, human; conditions: 10 μg/ml, 18 hour
Procedure: (§1) FIG. 5 is a graph illustrating ABCA1-independent efflux of cholesterol from Tangier disease fibroblasts. Normal skin fibroblasts (open bars) and Tangier disease skin fibroblasts (solid bars) were examined for their ability to efflux cholesterol over an 18 hour period when treated with 10 μg/ml apoA-I (A), 10 μg/ml L-37pA (L), and 10 μg/ml D-37pA (D). Results are expressed as the mean of triplicates±1 SD.
(§2) In order to confirm that the residual lipid efflux from the control cells to L-37pA and D-37pA (see FIG. 1) was not due to a low level of endogenous ABCA1, a Tangier disease fibroblast cell line with a truncated non-functional ABCA1 transporter (Remaley et al., Proc. Natl. Acad. Sci. USA 96:12685-12690, 1999) was evaluated for lipid efflux (FIG. 5). […] Thromb. Vasc. Biol. 17:1813-1821, 1997.

[2] = test system: HeLa cells transfected with only a hygromycin-resistant control plasmid (control cells); experiment: Cholesterol and phospholipid efflux from control cells; type: cell-based, human; conditions: for cholesterol removed from control cells / phospholipids removed from control cells: 40 μg/ml, 18 hours
Procedure: (§3) Percentage efflux was calculated after subtracting the radioactive counts in the blank media (αMEM plus 1 mg/ml of BSA), and expressed as the percent of total radioactive counts removed from the cells during the efflux period.
(§4) Cell fixation was performed by a 10 minute treatment with 3% paraformaldehyde in phosphate buffered saline (PBS), followed by three washes with blank media. Lactate dehydrogenase (LDH) release from cells into the media was measured enzymatically (Roche Diagnostics, Indianapolis, Ind.) and expressed, after subtraction of LDH released into blank media, as the percentage of total cell LDH. Total cell LDH was determined after cell solubilization with 1% Triton X-100.

[3] = Solubilization of DMPC vesicles (lipid affinity); type: physicochemical; conditions: peptide 0.4 mg/ml, DMPC 2 mg/ml, 2 hour incubation at room temperature, 8.5% NaBr
[4] = test system: HeLa cells stably transfected with human ABCA1 cDNA (ABCA1 cells); experiment: Cholesterol and phospholipid efflux from ABCA1 transfected cells; type: cell-based; conditions: for baseline cholesterol efflux retained after cell fixation of ABCA1 cells / effect of fixation of ABCA1 cells on cholesterol efflux (in words): fixation with 3% paraformaldehyde
Procedure: as §3, §4

Normal skin fibroblasts = experiment: Cholesterol efflux from normal skin fibroblasts; type: cell-based, human; conditions: 10 μg/ml, 18 hour
Procedure: as §1, §2

[5] = absence of a competitor, 1 μg/ml, 1 hour at 4° C.

Compound	competition for the binding of radiolabled L-37pA to control cells (in words) (control cells)	less radiolabled L-37pA bound by control cells than by ABCA1 cells (control cells; absence of a competitor) [%]	radiolabled L-37pA bound to control cells (control cells; [5]) [pmol/mg cell protein]	radiolabled L-37pA bound to ABCA1 cells (ABCA1 cells; [5]) [pmol/mg cell protein]	cholesterol efflux from Tangier disease fibroblasts [1]	time at which cholesterol efflux from control cells was first detectable ([2]; 10 μg/ml) [min]	cholesterol efflux time course from control cells (in words) ([2]; 10 μg/ml, 30 hour efflux period)	cholesterol removed from control cells [2] [%]	phospholipids removed from control cells [2] [%]	DMPC vesicle solubilization (decrease in turbidity at 350 nm) [3]	time at which cholesterol efflux from ABCA1 cells was first detectable ([4]; 10 μg/ml) [min]	baseline cholesterol efflux retained after cell fixation of ABCA1 cells ([4]; 10 μg/ml, 18 hours)	effect of fixation of ABCA1 cells on cholesterol efflux (in words) ([4]; 10 μg/ml, 18 hours)	cholesterol and phospholipid effluxed from ABCA1 cells relative to control cells ([4]; 18 hours)	protein concentration at which lipid efflux began to show saturation ([4]; 18 hours) [µg/mL]	molar concentration at which lipid efflux began to show saturation ([4]; corresponds to 10 μg/ml) [µM]	cholesterol efflux from normal fibroblasts (Normal skin fibroblasts)	specificity for cholesterol efflux by the ABCA1 transporter (in words) ([4]; 18 hour, ABCA1 transfected versus control HeLa cells)	competition for the binding of L-37pA to ABCA1 cells (in words) (ABCA1 cells; up to 8 μM, 4° C.)	cholesterol and phospholipid efflux from ABCA1 cells (in words) ([4]; 18 hours)
CC(C)C[C@H](NC(=O)[C@H](Cc1c[nH]c2ccccc12)NC(=O)[C@H](CC(=O)O)NC(=O)[C@@H]1CCCN1C(=O)[C@H](Cc1ccccc1)NC(=O)[C@H](C)NC(=O)[C@H](CCC(=O)O)NC(=O)[C@H](CCCCN)NC(=O)[C@H](CC(C)C)NC(=O)[C@H](CCCCN)NC(=O)[C@H](CCC(=O)O)NC(=O)[C@H](C)NC(=O)[C@@H](NC(=O)[C@H](CCCCN)NC(=O)[C@H](CC(=O)O)NC(=O)[C@H](Cc1ccc(O)cc1)NC(=O)[C@H](Cc1ccccc1)NC(=O)[C@H](C)NC(=O)[C@H](CCCCN)NC(=O)[C@H](CC(C)C)NC(=O)[C@H](Cc1c[nH]c2ccccc12)NC(=O)[C@@H](N)CC(=O)O)C(C)C)C(=O)N[C@@H](CCCCN)C(=O)N[C@@H](C)C(=O)N[C@@H](Cc1ccccc1)C(=O)N[C@@H](Cc1ccc(O)cc1)C(=O)N[C@@H](CC(=O)O)C(=O)N[C@@H](CCCCN)C(=O)N[C@H](C(=O)N[C@@H](C)C(=O)N[C@@H](CCC(=O)O)C(=O)N[C@@H](CCCCN)C(=O)N[C@@H](CC(C)C)C(=O)N[C@@H](CCCCN)C(=O)N[C@@H](CCC(=O)O)C(=O)N[C@@H](C)C(=O)N[C@@H](Cc1ccccc1)C(=O)O)C(C)C [L-37pA] (H-DWLKAFYDKVAEKLKEAFPDWLKAFYDKVAEKLKEAF-OH; N-terminus and C-terminus assumed)	competed equally well	23	27±0.6	35±2.2	still able to efflux cholesterol from Tangier disease fibroblasts, albeit at a reduced level	30	approximately half the rate	5	8	nearly completely solubilized the DMPC vesicles	30	approximately 30%	only partially reduced	2- to 4 fold	~10	2	effluxed cholesterol			
CC(C)C[C@H](NC(=O)[C@H](CCCCN)NC(=O)[C@H](CCC(=O)O)NC(=O)[C@H](C)NC(=O)[C@@H](NC(=O)[C@H](CCCCN)NC(=O)[C@H](CC(=O)O)NC(=O)[C@H](Cc1ccc(O)cc1)NC(=O)[C@H](Cc1ccccc1)NC(=O)[C@H](C)NC(=O)[C@H](CCCCN)NC(=O)[C@H](CC(C)C)NC(=O)[C@H](Cc1c[nH]c2ccccc12)NC(=O)[C@@H](N)CC(=O)O)C(C)C)C(=O)N[C@@H](CCCCN)C(=O)N[C@@H](CCC(=O)O)C(=O)N[C@@H](C)C(=O)N[C@@H](Cc1ccccc1)C(=O)N1CCC[C@H]1C(=O)N[C@@H](CC(=O)O)C(=O)N[C@@H](Cc1c[nH]c2ccccc12)C(=O)N[C@@H](C)C(=O)N[C@@H](CCCCN)C(=O)N[C@@H](C)C(=O)N[C@@H](C)C(=O)N[C@@H](Cc1ccc(O)cc1)C(=O)N[C@@H](CC(=O)O)C(=O)N[C@@H](CCCCN)C(=O)N[C@@H](C)C(=O)N[C@@H](C)C(=O)N[C@@H](CCC(=O)O)C(=O)N[C@@H](CCCCN)C(=O)N[C@@H](C)C(=O)N[C@@H](CCCCN)C(=O)N[C@@H](CCC(=O)O)C(=O)N[C@@H](C)C(=O)N[C@@H](C)C(=O)O [5A] (H-DWLKAFYDKVAEKLKEAFPDWAKAAYDKAAEKAKEAA-OH; N-terminus and C-terminus assumed)																		completely specific for only causing cholesterol efflux by the ABCA1 transporter		
CC(C)C[C@@H](NC(=O)[C@@H](Cc1c[nH]c2ccccc12)NC(=O)[C@H](N)CC(=O)O)C(=O)N[C@H](CCCCN)C(=O)N[C@H](C)C(=O)N[C@H](Cc1ccccc1)C(=O)N[C@H](Cc1ccc(O)cc1)C(=O)N[C@H](CC(=O)O)C(=O)N[C@H](CCCCN)C(=O)N[C@@H](C(=O)N[C@H](C)C(=O)N[C@H](CCC(=O)O)C(=O)N[C@H](CCCCN)C(=O)N[C@H](CC(C)C)C(=O)N[C@H](CCCCN)C(=O)N[C@H](CCC(=O)O)C(=O)N[C@H](C)C(=O)N[C@H](Cc1ccccc1)C(=O)N1CCC[C@@H]1C(=O)N[C@H](CC(=O)O)C(=O)N[C@H](Cc1c[nH]c2ccccc12)C(=O)N[C@H](CC(C)C)C(=O)N[C@H](CCCCN)C(=O)N[C@H](C)C(=O)N[C@H](Cc1ccccc1)C(=O)N[C@H](Cc1ccc(O)cc1)C(=O)N[C@H](CC(=O)O)C(=O)N[C@H](CCCCN)C(=O)N[C@@H](C(=O)N[C@H](C)C(=O)N[C@H](CCC(=O)O)C(=O)N[C@H](CCCCN)C(=O)N[C@H](CC(C)C)C(=O)N[C@H](CCCCN)C(=O)N[C@H](CCC(=O)O)C(=O)N[C@H](C)C(=O)N[C@H](Cc1ccccc1)C(=O)O)C(C)C)C(C)C [D-37pA] (H-[dD][dW][dL][dK][dA][dF][dY][dD][dK][dV][dA][dE][dK][dL][dK][dE][dA][dF][dP][dD][dW][dL][dK][dA][dF][dY][dD][dK][dV][dA][dE][dK][dL][dK][dE][dA][dF]-OH; N-terminus and C-terminus assumed)	competed equally well				still able to efflux cholesterol from Tangier disease fibroblasts, albeit at a reduced level			5	8	nearly completely solubilized the DMPC vesicles		approximately 30%	only partially reduced				effluxed cholesterol		similarly effective	effective in promoting cholesterol and phospholipid efflux
